Measurements taken from patent US20060258754A1, “Method of treating endothelial dysfunction, oxidative stress and related diseases” (priority 2004, published 2006).
At least one compound was matched to its structure with a doubt left.

How the values were obtained:
[1] = test system: vascular mesenteric bed; test: Rat arteriolar mesenteric bed: acetylcholine-evoked decrease in perfusion pressure after 4-week oral treatment; assay type: in vivo, alloxan-diabetic male Wistar rats; conditions: tissues from alloxan-diabetic rats treated 4 weeks; PD2 of acetylcholine, interval in brackets
Method: (§1) Male Wistar rats, weighing between 230-250 g, fed regular chow, with free access to water were separated in four groups (n=10/each). The first two groups, termed normoglycemic, were treated with saline (0.1 mL/100 g/12 h) by the oral route (intragastric gavage) or untreated for four weeks. The second two groups, hyperglycemic, were treated with saline (0.1 mL/100 g/12 h) or treated with D-chiro-inositol (20 mg/kg/12 h) under the same protocol. […] Diabetes was induced by a single intravenous injection of 45 mg/kg alloxan as described by Sannomiya et al., 1997 ( ). Diabetes was diagnosed 96 h after injection by blood glucose assay >200 mg/dL. All protocols were approved by the local committee and follow the Guide for the Care and Use of Laboratory Animals published by the US National Institutes of Health (NIH Publication No. 85-23, revised 1996).
The mesentery was carefully removed by cutting close to the intestinal border with a small scissors. […] The vascular bed was rapidly perfused with warm KHS (37° C.; pH 7.4; gassed with 95% O2 in 5% CO2) in an open system with a constant flow of 4 ml/min maintained with a peristaltic pump. Alterations in perfusion pressure were continuously recorded in a four-channel polygraph (Narco Biosystems, Houston, Tex., USA) by means of a pressure transducer (P23 Gould Stratham, Oxnard, Calif., USA). […]

[2] = test system: aortic rings; test: Rat aortic thoracic rings: acetylcholine relaxation after phenylephrine contraction, 4-week oral treatment; assay type: in vivo, alloxan-diabetic male Wistar rats; conditions: D-chiro-inositol 20 mg/kg/12 h by gavage four weeks; PD2 of acetylcholine, interval in brackets
Method: as §1, with “1996). After completion of blood pressure measurements and vascular mesenteric bed collection, animals were sacrificed by exsanguination while under anesthesia. The thoracic aorta was excised and rapidly cleansed of connective tissue in Petri dishes containing warmed and gassed (95% O2 in 5% CO2) Krebs-Henseleit solution (KHS). The aorta segment was cut in small rings (≈5 mm) and mounted horizontally in 5 mL chambers for isometric recording of tension. […]” for “1996).”

`OC1C(O)C(O)C(O)C(O)C1O` [DCI, D-chiro-inositol] was tested. Which “calculated PD2 value (acetylcholine, mesenteric bed)” value [1] did it give?
Its value is 7.4 [10.4-5.7].

And the “calculated PD2 value (acetylcholine, aortic rings)” value [2]?
The value was 10.3 [14.5-9.5].
